Source: patent US6492536B2, “Steroids, their use as medicaments, their preparation process, the intermediates of this process and the compositions containing them” (Aventis Pharma S.A., priority 1996, dated 2002)
For at least one compound, name, drawing or mass did not settle the structure.

Key:
[1] = test system: GRE-tk promoter; assay: Regulation of transcription in transfected Hela cells: transactivation (GRE-tk-CAT plasmid); format: cell-based
Experimental: (§1) The molecules according to the invention have been tested in models of HELA cells transfected with the GRE-tk-CAT plasmid (transactivation), or with the pColl-CAT plasmid (transrepression). (Cf. TEST 1)
(§2) I) Study of the regulation of transcription in transfected Hela cells.
(§3) Hela cells (ATCC ref: CCL-2) are distributed in a 6-well plate, in a nutritive medium with a density of 4×10^5 cells/ml, 24 hours before the transfection, and are incubated at 37° C. The transitory transfections are produced according to the precipitate method with calcium phosphate. In the case of the study of transactivation, the cells are transfected with 1 μg of GRE-tk-CAT plasmid, 1 μg of polyII β-GAL plasmid and KS plasmid (Stratagene), s.q.f. 5 μg. In the case of the study of transrepression, the cells are transfected with 3 μg of Coll (−517/+63) CAT plasmid, 250 ng of pSV-cjun plasmid, 1 μg of polyII β-GAL plasmid and KS plasmid (Stratagene), s.q.f. 5 μg. The precipitate is left in contact with the cells for 16 hours. These are then rinsed and covered with the nutritive medium containing different concentrations of Dexamethasone or the products to be studied (10^−9M, 10^−8M, 10^−7M, 10^−6M). 24 hours after the addition of the products, the cells are lysed in 250 μl of MOPS-NaCl-Triton X-100 buffer. The CAT is dosed in the cellular extracts using the ELISA Kit (Boehringer Mannheim).

[2] = test system: collagenase promoter; assay: Regulation of transcription in transfected Hela cells: transrepression (Coll (-517/+63) CAT plasmid); format: cell-based
Experimental: as §1, §2, §3

## C[C@@H]1C[C@H]2[C@@H]3CCC4=CC(=O)C=C[C@]4(C)[C@@]3(F)[C@@H](O)C[C@]2(C)[C@@]1(O)C(=O)CO [Dexamethasone, reference compound]
[1]
  Transcription of the GRE-tk promoter (in words): cause an activation of the transcription of the GRE-tk promoter
[2]
  Transcription of the collagenase promoter (in words): an inhibition of the transcription of the collagenase promoter
